In article PMC9365725 one finds binding data, which are given here for 2 substances.

This assay has as its target TAP1 (subunit of the transporter associated with antigen processing) (human (endogenous in monocytes and monocyte-derived DCs)) (UniProt Q03518). The experiment in a line: co-IP; anti-TAP1 mAb 148.3 cross-linked to sheep-anti-mouse IgG Dynabeads; solubilizates of monocytes, imDCs and mDCs in 1% digitonin, 150 mM NaCl, 50 mM HEPES pH 7.4, 8.6% glycerin; 3 h at 4 °C; washed with 0.1% digitonin; immunoblot; isotype antibody as control.

No constants are given. Whether binding was seen depends on the method and setting. Binding seen in cells or lysates may run through a third protein. Some results given as binding are weak or reduced against the parent protein; the word gives no strength.

For ERp57 (from UniProt P30101 25-505), the binding entry is “binds”.

With “calreticulin (from UniProt P27797 18-417)”, the binding entry is “binds”.
